In all, about 33,000 sequences were measured (“E-score (-0.5 to 0.5)”: median about -8e-05, highest 2% from about 0.23 on). This is one part of the list.
Each sequence was assayed against T1, Nrg2 (UniProt P38082) (assay: PBM E-score (8-mer binding enrichment) (E-score (-0.5 to 0.5)); higher = stronger / more preferred TF binding). Settings: protein concentration: 100 nM; construct: GST-full length.
T1 sequence: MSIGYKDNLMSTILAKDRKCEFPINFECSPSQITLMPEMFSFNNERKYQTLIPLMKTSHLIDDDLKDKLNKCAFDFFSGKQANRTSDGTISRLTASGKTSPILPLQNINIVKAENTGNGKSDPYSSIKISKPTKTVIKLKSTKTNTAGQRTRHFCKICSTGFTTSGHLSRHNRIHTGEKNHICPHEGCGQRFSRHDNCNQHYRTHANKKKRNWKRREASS
Method in brief: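 For each ungapped eight-base word taken together with its reverse complement, the Universal PBM Analysis Suite assigned an E-score. Binding data came from GST-tagged yeast transcription factors, applied at about 100-200 nM, on universal all-10-mer Agilent arrays made double-stranded by primer extension. Fluorescent anti-GST marked bound protein, and scans were normalised with masliner.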
ATCAGGCG was tested, and the “PBM E-score” value was 0.0279.
With AACCCTTG the “PBM E-score” value was 0.194.
For AATGCACA, the “PBM E-score” value was 0.0926.
For CATCGGAA, the “PBM E-score” value was -0.00211.
In the case of AGCTAATA, the “PBM E-score” value is reported as 0.0888.
For CGAATGCC, the “PBM E-score” value was -0.0725.
With CCTCATCG the “PBM E-score” value was 0.142.
GAGGTAGA was tested, and the “PBM E-score” value was -0.063.
In the case of ATGCCGCG, the “PBM E-score” value is reported as 0.00671.
With CTTTAGTC the “PBM E-score” value was -0.146.
For CTTAAACA, the “PBM E-score” value was 0.0774.
CTAGGGGC was tested, and the “PBM E-score” value was -0.129.
With GCCAGTAC the “PBM E-score” value was -0.119.
In the case of CTAGACTA, the “PBM E-score” value is reported as -0.0731.
With GACTGGAC the “PBM E-score” value was -0.18.
ATCGAGGG was tested, and the “PBM E-score” value was 0.12.
For ACTACTGG, the “PBM E-score” value was -0.11.
CGCAACCC was tested, and the “PBM E-score” value was 0.143.
In the case of CTGTCAGC, the “PBM E-score” value is reported as 0.0361.
In the case of CCGTAAGC, the “PBM E-score” value is reported as -0.191.
For ACAAATCC, the “PBM E-score” value was 0.0969.
AACACGGG was tested, and the “PBM E-score” value was 0.181.
GGGTCATA was tested, and the “PBM E-score” value was -0.116.
In the case of GTGGTCGA, the “PBM E-score” value is reported as -0.114.
AGATCCTA was tested, and the “PBM E-score” value was -0.0612.
In the case of GGCGGCTA, the “PBM E-score” value is reported as 0.0414.
In the case of CCTCGCCA, the “PBM E-score” value is reported as -0.195.
With AGACGCAC the “PBM E-score” value was -0.11.
In the case of CCACGTGG, the “PBM E-score” value is reported as -0.0832.
TTCGAGAA was tested, and the “PBM E-score” value was 0.0656.
ACCCACGC was tested, and the “PBM E-score” value was -0.00444.
CACCTTGA was tested, and the “PBM E-score” value was -0.141.
In the case of CCACGTGC, the “PBM E-score” value is reported as -0.0896.
For GACTGGCC, the “PBM E-score” value was -0.164.
AAGACTAC was tested, and the “PBM E-score” value was 0.105.
In the case of GCATCAAA, the “PBM E-score” value is reported as 0.0814.
CCCACTAC was tested, and the “PBM E-score” value was 0.0486.
ATAGACTA was tested, and the “PBM E-score” value was -0.0062.
With ATCCAAGC the “PBM E-score” value was -0.00379.
In the case of AAGCAAGT, the “PBM E-score” value is reported as 0.0393.
In the case of CATCTACA, the “PBM E-score” value is reported as 0.0424.
CCGAGTCG was tested, and the “PBM E-score” value was -0.154.
With AACCTGCG the “PBM E-score” value was 0.0269.
With TAACGGCA the “PBM E-score” value was 0.0414.
In the case of ACACTCAC, the “PBM E-score” value is reported as 0.145.
In the case of ACTCATGC, the “PBM E-score” value is reported as -0.0999.
In the case of ACTCTTAA, the “PBM E-score” value is reported as -0.115.
With CGCTTTCC the “PBM E-score” value was -0.1.
For CAGCCAAA, the “PBM E-score” value was 0.0861.
AAGTGGTG was tested, and the “PBM E-score” value was -0.0492.
AGCTGTCA was tested, and the “PBM E-score” value was 0.13.
AACGGCTC was tested, and the “PBM E-score” value was -0.0179.
For CTCCACTC, the “PBM E-score” value was -0.238.
In the case of CGCCTTAG, the “PBM E-score” value is reported as -0.0566.
In the case of CACAGGGA, the “PBM E-score” value is reported as 0.139.
For CGTTCGGA, the “PBM E-score” value was -0.0218.
With CAGAAACC the “PBM E-score” value was 0.125.
In the case of AACGCCCA, the “PBM E-score” value is reported as 0.0709.
For GGCAGTCA, the “PBM E-score” value was -0.0255.
For CAAGGCTG, the “PBM E-score” value was -0.0192.
CATTCACC was tested, and the “PBM E-score” value was 0.161.
With CGTGCGTC the “PBM E-score” value was 0.0766.
In the case of CAGGAAAG, the “PBM E-score” value is reported as -0.123.
CCTAAAAG was tested, and the “PBM E-score” value was -0.373.
In the case of GGTAACTA, the “PBM E-score” value is reported as 0.146.
CGGCCGGC was tested, and the “PBM E-score” value was -0.0678.
In the case of AACGTACA, the “PBM E-score” value is reported as 0.036.
For ACTGTGGC, the “PBM E-score” value was -0.169.
For ACGCGTGA, the “PBM E-score” value was 0.195.
For CGTTGATC, the “PBM E-score” value was -0.0004.
GAGGAGCC was tested, and the “PBM E-score” value was -0.2.
With CCTAGCCC the “PBM E-score” value was -0.116.
With AAAGATGT the “PBM E-score” value was 0.0245.
In the case of CACAGGCA, the “PBM E-score” value is reported as 0.0159.
For AACGGAGA, the “PBM E-score” value was -0.036.
For ATATCGCG, the “PBM E-score” value was 0.331.
With GCTAGTAA the “PBM E-score” value was 0.139.
ACTCCAGG was tested, and the “PBM E-score” value was -0.129.
In the case of GAGTTCGC, the “PBM E-score” value is reported as 0.0858.
With AGTGTATA the “PBM E-score” value was -0.00713.
For CAATCTAA, the “PBM E-score” value was -0.0579.
In the case of AGGTTCAC, the “PBM E-score” value is reported as 0.016.
For AGCGAGCT, the “PBM E-score” value was 0.196.
With CGCGTGAG the “PBM E-score” value was 0.122.
For AAACTACT, the “PBM E-score” value was 0.144.
In the case of GACCGGTA, the “PBM E-score” value is reported as -0.284.
With AATTCCGC the “PBM E-score” value was 0.0765.
AAAAGCAT was tested, and the “PBM E-score” value was 0.0445.
For GTGCGGAA, the “PBM E-score” value was 0.0665.
In the case of GATTCAAC, the “PBM E-score” value is reported as 0.00265.
ATGACCAC was tested, and the “PBM E-score” value was -0.122.
GGACCATA was tested, and the “PBM E-score” value was -0.023.
With CAGTCTGC the “PBM E-score” value was -0.113.
For GGGGCTTA, the “PBM E-score” value was -0.222.
With AGGGACAC the “PBM E-score” value was 0.204.
With ACTTCACG the “PBM E-score” value was -0.123.
ACTTTAGA was tested, and the “PBM E-score” value was -0.00459.
With AGCGACGC the “PBM E-score” value was -0.0635.
For AAACACCG, the “PBM E-score” value was 0.0159.
ACGATAGC was tested, and the “PBM E-score” value was -0.0673.
In the case of ACGCATTC, the “PBM E-score” value is reported as 0.0337.
With CACAGATA the “PBM E-score” value was 0.0158.
In the case of CTTAATTC, the “PBM E-score” value is reported as 0.103.
In the case of GGATCACC, the “PBM E-score” value is reported as -0.046.
In the case of GACAGCGA, the “PBM E-score” value is reported as -0.131.
For GGAATCCC, the “PBM E-score” value was -0.0604.
In the case of ACCTATTG, the “PBM E-score” value is reported as -0.0421.
GTACGACA was tested, and the “PBM E-score” value was 0.061.
In the case of ATCACCCA, the “PBM E-score” value is reported as -0.0261.

Reference: the supplement of paper PMC3334620
